For four compounds, viability results are on record in PMC12040169 (PLOS Biology, 2025).

Molecules are shown by their SMILES.

One may read the viability as a read-out of living cells in per cent, often relative to untreated cells.

The nature of the data set: in vitro. To be noted: human, hela cells, % viability.

Turning to `NC(=O)c1cc(-c2ccccc2)sc1N` [CBK016888], the viability at 28.5 h, 10 µM is 91%.

Turning to `FC(F)(F)c1cc(-c2ccco2)nc2ncnn12` [CBK027878], the viability at 28.5 h, 10 µM stood at 103%.

Consider `Cc1ccc(SCc2nc(-c3cccnc3)no2)cc1` [CBK267679], for which the viability at 28.5 h, 10 µM was determined as 89.1%.

`Cc1cc(C)n(C(=O)C(C)n2nc([N+](=O)[O-])c(Br)c2C)n1` (stereo not shown) [CBK269121]: the viability at 28.5 h, 10 µM came out at 95.7%.
